Some of the results follow. These are further read-outs of the screen, such as a control signal, another cell line or another target. No call is given for them. The list favours compounds with an active or inconclusive main result. Words in brackets tell the shape of the fitted curve; partial curves, single points and poor fits give uncertain potencies.
Experiment: qHTS Assay for Lipid Storage Modulators in Drosophila S3 Cells;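 as to cell number change: cells counted by Cell Tracker Red CMTPX staining in the red channel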
Settings: BODIPY lipid droplet fluorescence, 18-24 h; for cell number change: measured here: cell count max response, cells fed with added oleic acid
Method in brief: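 Drosophila S3 cells loaded with oleic acid (400 uM, as added) and compounds at several concentrations; lipid droplets imaged by 488-nm laser-scanning cytometry, 500–530 nm intensity and object ratio to cell channel. Percent activity normalized to 20 uM Triacsin C.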

[1] = measured here: lipid fluorescence (Fed channel) AC50, cells fed with added oleic acid
[2] = measured here: cell number channel AC50, cells fed with added oleic acid

SMILES	cell number change [%]	AC50 [1]	AC50 [2]
Cc1cc2ncc(S(=O)(=O)C(C)(C)C)c(N)n2n1	26.2	32.6 µM [rising, single point]	–
COc1ccc(NC(=O)CCCn2c(=O)c3sccc3n(Cc3cccc(C)c3)c2=O)cc1	–	0.461 µM [rising, full curve]	–
C#CCNC(=O)C1=C[C@@H](c2coc3ccccc3c2=O)[C@H](CCCO)[C@@H](OCC)O1	-3.31	29.1 µM [falling, single point]	–
Cc1ccccc1N(C(=O)CS(=O)CC(=O)Nc1ccc(F)cc1)C(C)C(=O)NC(C)(C)C (stereo not drawn)	24.4	29.1 µM [rising, single point]	–
CCN(C(=S)NCCOC)c1cccc2ccccc12	2.36	0.794 µM [falling, full curve, poor fit]	–
O=C(Cn1cnc2ccccc2c1=O)NCCC(=O)Nc1ccccc1C(F)(F)F	–	0.0206 µM [falling, full curve]	–
O=C(Nc1nc2ccccc2[nH]1)c1cccc(S(=O)(=O)N2CCOCC2)c1	–	0.58 µM [rising, partial curve]	–
CC(=O)Nc1sc(C)c(C)c1C(=O)OC1CCOC1=O (stereo not drawn)	-6.63	–	–
CC1(C)CC(/C=C/c2ccccc2)=Nc2ccccc2N1	-18.1	18.4 µM [falling, single point]	–
CCCN1C(=O)/C(=C/c2ccc(C)s2)NC1=S	-48.4	20.6 µM [falling, single point]	18.4 µM [falling, single point]
C[n+]1cc(C(=O)N2CCCCC2)ccc1/C=C/c1c[nH]c2ccccc12	17.8	0.411 µM [falling, partial curve, poor fit]	–
CS(=O)(=O)n1nc(-c2cccnc2)nc1NCc1ccccc1	-20.5	0.184 µM [rising, full curve, poor fit]	–
CCOc1ccc(C2N(c3ccc(F)cc3)C(=O)C3CCCN32)cc1 (stereo not drawn)	-13	1.03 µM [falling, single point]	1.03 µM [falling, single point]
O=C(Nc1ccccc1)N1CCN(C(=O)Nc2ccccc2)CC1	9.09	0.0058 µM [rising, full curve, poor fit]	0.0103 µM [rising, full curve, poor fit]
Cc1cccc(NC(=O)COc2ccc(-c3nn(C)c(=O)c4ccccc34)cc2)c1	-10.3	1.46 µM [falling, partial curve]	–
CCC1(C)Cc2c(sc3nn[nH]c(=O)c23)CO1 (stereo not drawn)	–	29.1 µM [falling, single point]	0.731 µM [falling, full curve, poor fit]
O=[N+]([O-])c1ccc(N=Nc2ccc(O)cc2O)cc1	-73.8	20.6 µM [falling, partial curve]	4.11 µM [falling, partial curve]
COc1ccccc1N/C(N)=N/c1nc(CSc2ccc(C)cc2)cc(=O)[nH]1	-41	18.4 µM [falling, partial curve, poor fit]	8.2 µM [falling, partial curve, poor fit]
CCC(C)NC(=O)COc1ccc(Br)c(C)c1 (stereo not drawn)	33.6	6.51 µM [falling, single point]	16.4 µM [rising, single point]
NC(=O)CC[C@@H]1NC(=O)[C@H](CO)NC(=O)c2cc([N+](=O)[O-])cc(I)c2NCC[C@@H](C(N)=O)NC1=O	-3.77	0.731 µM [falling, single point]	–
O=C(COC(=O)c1cnccn1)c1ccccc1	-54	6.51 µM [falling, single point]	8.2 µM [falling, partial curve]
O=C(NCc1ccncc1)C1CCN(S(=O)(=O)c2cc(Cl)ccc2Cl)CC1	2.99	–	–
Cn1ccc(=NC=C(C#N)C#N)c2ccccc21	–	29.1 µM [rising, single point]	–
CCCCCCCC(=O)N/N=C/c1ccc(Br)cc1	-46	29.1 µM [falling, single point]	23.1 µM [falling, single point]
O=C(COc1ccccc1Cl)N1CCN(c2ccccn2)CC1	67.3	–	–
CCOC(=O)c1cn(C2CC2)c2c(F)c(F)c(F)cc2c1=O	–	–	6.51 µM [falling, partial curve]
CCS(=O)(=O)c1ccc(O)c(NC(=O)Nc2ccc(C(C)(C)C)cc2)c1	2.31	0.13 µM [falling, full curve, poor fit]	–
Cc1ccc(Cl)cc1N1CCN(C(=O)CNC(=O)c2ccc(Br)o2)CC1	-15.3	6.51 µM [falling, single point]	–
O=C(COC(=O)CCSc1ccccc1)Nc1ccc(F)cc1Cl	-36.9	–	1.46 µM [falling, partial curve, poor fit]

Quoted at random: 2 records from the list, in no set order.
SMILES	cell number change [%]	AC50 [1]	AC50 [2]
CCC1(C)Cc2c(sc3nn[nH]c(=O)c23)CO1 (stereo not drawn)	–	29.1 µM [falling, single point]	0.731 µM [falling, full curve, poor fit]
Cn1ccc(=NC=C(C#N)C#N)c2ccccc21	–	29.1 µM [rising, single point]	–

Source: PubChem BioAssay AID2685 (National Center for Advancing Translational Sciences (NCATS), 2010)
